In PMC9925739:
These are yes or no findings as the source states them, for the method shown. In cells and extracts the contact can be indirect. Some entries that bind do so weakly or less than the wild type.

The chains behind the UniProt entries cited, without tags or fusion partners.
UniProt P40763: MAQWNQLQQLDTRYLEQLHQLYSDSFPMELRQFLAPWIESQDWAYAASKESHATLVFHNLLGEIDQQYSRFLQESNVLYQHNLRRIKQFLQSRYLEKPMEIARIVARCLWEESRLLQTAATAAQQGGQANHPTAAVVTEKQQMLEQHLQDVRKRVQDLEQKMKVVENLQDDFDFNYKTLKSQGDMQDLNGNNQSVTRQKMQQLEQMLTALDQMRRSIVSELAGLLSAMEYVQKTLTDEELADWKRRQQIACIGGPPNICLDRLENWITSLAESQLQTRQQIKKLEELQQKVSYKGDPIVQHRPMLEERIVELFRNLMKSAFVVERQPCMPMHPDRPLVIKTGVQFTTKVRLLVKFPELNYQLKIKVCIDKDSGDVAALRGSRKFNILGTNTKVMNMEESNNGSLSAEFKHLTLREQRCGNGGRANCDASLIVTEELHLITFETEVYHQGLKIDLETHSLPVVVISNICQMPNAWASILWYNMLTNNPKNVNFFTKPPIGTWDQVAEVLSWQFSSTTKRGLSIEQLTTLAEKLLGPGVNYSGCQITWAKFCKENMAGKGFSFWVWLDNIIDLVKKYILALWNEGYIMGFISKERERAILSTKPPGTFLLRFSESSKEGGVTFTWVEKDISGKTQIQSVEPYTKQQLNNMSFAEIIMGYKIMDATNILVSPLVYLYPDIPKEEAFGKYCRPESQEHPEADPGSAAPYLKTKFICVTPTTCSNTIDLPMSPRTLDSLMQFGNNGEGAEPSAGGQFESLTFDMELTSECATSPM
UniProt Q15672: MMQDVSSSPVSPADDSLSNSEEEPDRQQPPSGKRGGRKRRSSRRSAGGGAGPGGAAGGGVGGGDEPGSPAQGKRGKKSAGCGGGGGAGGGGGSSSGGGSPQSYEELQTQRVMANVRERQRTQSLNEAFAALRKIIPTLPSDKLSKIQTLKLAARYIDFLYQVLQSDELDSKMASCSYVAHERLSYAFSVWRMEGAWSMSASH

Molecular target: T1, Ras-related protein 31 (human) (UniProt Q13636)
T1 sequence: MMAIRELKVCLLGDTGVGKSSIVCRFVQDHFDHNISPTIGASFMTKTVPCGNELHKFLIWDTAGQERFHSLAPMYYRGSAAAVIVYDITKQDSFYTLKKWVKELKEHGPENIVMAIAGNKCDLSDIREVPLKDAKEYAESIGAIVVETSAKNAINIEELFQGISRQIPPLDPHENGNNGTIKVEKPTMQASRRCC
Test: co-IP; coimmunoprecipitation from AGS cells (Fig. 4F, Fig. S2A); bait, antibody and buffer not told in the main text

Substance | binding
Stat3 (from UniProt P40763 1-770) | binds
Twist-related protein 1 (from UniProt Q15672 1-202) | no binding
